In the supplement of paper PMC12823440, “Inhibitors supercharge kinase turnover through native proteolytic circuits” (Nature, 2025):
Where a name gives a salt, the structure may show the parent alone. Some of the results follow. Hit calls seldom repeat between salt and free forms of one compound.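 Kinases were expressed as nanoluciferase fusions in K562 cells and luminescence was read every 4 h between 2 and 18 h as percent of control, DMSO set to 100% and a positive control to 0%. A time point counts as decreased when the signal drops significantly (2 sigma). The hit call is the authors' own, does not follow from the count of time points alone, and its rule is not shown.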

Amino acid sequences for entries named in this document (tags omitted). A change or cut given only in a name is not applied to a line headed by its entry.
UniProt P00519, whole entry: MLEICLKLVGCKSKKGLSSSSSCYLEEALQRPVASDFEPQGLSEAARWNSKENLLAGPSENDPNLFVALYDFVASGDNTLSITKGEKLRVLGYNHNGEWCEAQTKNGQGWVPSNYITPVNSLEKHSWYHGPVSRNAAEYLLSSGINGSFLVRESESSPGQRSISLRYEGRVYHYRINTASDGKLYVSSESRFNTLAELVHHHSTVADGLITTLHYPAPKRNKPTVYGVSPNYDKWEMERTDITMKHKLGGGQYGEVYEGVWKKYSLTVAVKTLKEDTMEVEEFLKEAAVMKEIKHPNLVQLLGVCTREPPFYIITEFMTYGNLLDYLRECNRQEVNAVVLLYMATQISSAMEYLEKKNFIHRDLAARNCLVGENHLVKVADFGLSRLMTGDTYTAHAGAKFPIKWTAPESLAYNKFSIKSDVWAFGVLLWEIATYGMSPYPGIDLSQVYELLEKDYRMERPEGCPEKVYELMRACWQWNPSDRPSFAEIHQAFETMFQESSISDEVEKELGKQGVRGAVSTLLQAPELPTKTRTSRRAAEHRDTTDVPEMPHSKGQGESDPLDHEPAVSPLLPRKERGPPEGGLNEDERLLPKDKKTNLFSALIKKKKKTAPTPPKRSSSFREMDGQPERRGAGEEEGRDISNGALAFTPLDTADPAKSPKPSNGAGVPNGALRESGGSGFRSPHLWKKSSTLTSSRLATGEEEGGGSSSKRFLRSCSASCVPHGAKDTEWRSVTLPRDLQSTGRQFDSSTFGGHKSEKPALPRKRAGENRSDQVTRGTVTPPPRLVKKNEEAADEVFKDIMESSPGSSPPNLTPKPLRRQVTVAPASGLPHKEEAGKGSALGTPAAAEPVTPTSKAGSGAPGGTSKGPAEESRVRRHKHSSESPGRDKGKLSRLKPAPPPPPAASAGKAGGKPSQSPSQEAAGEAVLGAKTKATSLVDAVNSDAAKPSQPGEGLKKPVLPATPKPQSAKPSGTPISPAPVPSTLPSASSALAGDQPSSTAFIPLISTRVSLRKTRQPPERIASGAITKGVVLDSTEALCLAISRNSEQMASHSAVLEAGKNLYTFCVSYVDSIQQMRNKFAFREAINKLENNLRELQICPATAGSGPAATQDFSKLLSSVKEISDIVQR
UniProt Q9UM73: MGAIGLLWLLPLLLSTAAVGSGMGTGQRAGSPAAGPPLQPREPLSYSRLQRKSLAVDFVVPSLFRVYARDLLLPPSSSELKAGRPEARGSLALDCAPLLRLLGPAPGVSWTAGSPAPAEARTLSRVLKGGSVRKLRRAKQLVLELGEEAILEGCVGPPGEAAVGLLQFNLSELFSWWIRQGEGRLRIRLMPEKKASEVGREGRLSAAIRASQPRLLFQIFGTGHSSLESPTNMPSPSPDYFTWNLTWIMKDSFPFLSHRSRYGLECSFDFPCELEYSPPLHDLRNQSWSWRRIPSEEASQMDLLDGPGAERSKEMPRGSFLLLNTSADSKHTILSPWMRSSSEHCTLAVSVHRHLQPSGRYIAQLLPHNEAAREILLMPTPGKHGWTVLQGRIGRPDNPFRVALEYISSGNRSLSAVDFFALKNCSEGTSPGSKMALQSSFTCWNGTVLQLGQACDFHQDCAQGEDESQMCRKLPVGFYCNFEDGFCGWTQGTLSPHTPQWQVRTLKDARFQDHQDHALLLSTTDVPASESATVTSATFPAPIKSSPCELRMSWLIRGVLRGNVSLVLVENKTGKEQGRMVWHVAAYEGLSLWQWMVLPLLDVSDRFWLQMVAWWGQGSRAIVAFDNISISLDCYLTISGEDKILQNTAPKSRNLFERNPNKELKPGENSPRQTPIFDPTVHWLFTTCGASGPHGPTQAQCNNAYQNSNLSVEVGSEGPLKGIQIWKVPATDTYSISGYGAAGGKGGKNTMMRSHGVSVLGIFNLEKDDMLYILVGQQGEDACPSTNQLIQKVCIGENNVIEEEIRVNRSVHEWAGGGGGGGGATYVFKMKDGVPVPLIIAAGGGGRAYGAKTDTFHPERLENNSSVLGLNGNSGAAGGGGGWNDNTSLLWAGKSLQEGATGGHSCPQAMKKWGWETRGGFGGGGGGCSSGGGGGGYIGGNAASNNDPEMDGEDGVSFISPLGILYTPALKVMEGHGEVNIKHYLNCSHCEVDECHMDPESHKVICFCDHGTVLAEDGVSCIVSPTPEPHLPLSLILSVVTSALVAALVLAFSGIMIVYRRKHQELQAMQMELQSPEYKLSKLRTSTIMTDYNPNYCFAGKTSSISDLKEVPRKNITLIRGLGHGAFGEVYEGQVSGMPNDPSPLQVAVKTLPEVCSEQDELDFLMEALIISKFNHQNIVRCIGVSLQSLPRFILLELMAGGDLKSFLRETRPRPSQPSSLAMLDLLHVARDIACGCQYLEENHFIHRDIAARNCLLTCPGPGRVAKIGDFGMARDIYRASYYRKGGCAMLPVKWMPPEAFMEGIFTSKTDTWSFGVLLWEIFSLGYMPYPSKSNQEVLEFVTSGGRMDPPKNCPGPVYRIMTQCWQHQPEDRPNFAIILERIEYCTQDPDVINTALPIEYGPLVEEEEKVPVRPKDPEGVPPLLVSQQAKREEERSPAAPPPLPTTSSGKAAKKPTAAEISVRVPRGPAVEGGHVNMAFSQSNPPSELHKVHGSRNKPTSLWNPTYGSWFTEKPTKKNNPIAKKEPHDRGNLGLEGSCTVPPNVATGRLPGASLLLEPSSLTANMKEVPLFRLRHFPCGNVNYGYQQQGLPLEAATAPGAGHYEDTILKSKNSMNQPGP
UniProt Q9UQB9: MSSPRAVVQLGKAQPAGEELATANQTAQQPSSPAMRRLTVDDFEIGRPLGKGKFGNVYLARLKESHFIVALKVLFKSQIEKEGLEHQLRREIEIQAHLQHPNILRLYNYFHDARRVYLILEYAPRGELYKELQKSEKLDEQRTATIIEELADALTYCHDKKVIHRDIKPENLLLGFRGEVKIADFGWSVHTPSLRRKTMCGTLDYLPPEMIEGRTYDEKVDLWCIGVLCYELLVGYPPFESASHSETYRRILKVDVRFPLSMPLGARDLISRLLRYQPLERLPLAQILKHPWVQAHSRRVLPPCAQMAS
UniProt P51813: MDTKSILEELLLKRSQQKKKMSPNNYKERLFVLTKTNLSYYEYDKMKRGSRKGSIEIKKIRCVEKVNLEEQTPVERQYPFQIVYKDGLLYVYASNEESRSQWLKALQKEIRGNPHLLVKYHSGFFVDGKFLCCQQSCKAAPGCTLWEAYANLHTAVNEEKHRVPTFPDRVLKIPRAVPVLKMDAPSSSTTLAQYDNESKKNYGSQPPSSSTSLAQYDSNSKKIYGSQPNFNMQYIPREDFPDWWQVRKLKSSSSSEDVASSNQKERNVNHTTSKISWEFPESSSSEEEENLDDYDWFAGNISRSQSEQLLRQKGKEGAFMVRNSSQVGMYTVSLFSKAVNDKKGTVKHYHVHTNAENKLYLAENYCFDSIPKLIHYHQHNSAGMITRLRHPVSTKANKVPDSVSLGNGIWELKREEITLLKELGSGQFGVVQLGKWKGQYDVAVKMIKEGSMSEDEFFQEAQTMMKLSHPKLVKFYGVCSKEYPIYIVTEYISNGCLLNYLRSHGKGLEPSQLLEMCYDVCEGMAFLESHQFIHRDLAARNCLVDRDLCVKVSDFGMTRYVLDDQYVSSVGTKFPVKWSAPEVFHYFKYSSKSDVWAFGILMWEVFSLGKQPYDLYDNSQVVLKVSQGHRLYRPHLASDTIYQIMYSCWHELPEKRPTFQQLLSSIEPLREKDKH
UniProt Q06187: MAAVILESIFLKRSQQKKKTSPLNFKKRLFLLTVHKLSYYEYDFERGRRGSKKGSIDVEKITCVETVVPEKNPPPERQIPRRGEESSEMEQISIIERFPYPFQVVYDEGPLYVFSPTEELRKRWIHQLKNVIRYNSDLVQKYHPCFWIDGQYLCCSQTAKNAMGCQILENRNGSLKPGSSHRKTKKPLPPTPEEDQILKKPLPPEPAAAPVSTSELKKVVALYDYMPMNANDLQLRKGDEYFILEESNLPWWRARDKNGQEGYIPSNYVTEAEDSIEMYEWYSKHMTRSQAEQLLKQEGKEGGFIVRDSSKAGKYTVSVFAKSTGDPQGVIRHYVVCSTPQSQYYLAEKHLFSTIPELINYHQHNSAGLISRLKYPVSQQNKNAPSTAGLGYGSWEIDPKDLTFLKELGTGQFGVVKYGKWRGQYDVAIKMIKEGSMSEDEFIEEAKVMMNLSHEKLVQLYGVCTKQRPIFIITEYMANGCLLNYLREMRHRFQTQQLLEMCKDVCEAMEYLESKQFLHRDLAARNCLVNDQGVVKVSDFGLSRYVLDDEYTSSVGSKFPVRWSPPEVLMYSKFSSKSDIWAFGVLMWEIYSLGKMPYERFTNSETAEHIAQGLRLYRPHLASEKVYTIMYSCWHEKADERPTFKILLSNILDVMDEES
UniProt Q13555: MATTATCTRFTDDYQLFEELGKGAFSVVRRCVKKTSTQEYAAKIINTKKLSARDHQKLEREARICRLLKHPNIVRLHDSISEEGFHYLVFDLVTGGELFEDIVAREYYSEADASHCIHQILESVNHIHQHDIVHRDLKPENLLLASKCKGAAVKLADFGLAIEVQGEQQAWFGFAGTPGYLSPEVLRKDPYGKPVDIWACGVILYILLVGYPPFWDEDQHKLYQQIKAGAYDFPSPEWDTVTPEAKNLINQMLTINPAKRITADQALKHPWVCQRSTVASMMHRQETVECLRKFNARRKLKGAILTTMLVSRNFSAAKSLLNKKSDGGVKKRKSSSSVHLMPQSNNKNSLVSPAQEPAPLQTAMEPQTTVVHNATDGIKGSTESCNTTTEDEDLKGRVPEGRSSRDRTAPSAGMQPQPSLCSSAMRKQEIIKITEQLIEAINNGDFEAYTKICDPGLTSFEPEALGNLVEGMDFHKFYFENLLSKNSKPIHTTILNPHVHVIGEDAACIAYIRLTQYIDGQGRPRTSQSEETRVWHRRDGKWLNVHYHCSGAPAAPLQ
UniProt Q15131: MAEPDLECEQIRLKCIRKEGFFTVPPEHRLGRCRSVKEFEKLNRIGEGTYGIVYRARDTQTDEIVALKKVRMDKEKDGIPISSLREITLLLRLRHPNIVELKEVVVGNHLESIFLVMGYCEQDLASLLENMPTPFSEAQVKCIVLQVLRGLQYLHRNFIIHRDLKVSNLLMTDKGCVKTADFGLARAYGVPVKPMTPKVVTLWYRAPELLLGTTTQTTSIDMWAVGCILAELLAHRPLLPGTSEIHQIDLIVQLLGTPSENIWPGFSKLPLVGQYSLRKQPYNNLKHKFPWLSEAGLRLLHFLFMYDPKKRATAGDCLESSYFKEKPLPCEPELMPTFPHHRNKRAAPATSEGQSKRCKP
UniProt Q00526: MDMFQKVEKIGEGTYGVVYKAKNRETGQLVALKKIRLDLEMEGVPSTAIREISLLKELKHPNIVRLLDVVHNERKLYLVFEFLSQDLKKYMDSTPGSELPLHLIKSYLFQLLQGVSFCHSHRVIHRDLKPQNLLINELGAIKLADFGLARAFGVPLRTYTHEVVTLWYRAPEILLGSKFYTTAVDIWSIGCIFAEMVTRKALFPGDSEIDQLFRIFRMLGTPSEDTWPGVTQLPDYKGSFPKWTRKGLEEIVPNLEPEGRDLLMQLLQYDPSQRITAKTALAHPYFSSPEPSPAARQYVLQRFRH
UniProt P11802: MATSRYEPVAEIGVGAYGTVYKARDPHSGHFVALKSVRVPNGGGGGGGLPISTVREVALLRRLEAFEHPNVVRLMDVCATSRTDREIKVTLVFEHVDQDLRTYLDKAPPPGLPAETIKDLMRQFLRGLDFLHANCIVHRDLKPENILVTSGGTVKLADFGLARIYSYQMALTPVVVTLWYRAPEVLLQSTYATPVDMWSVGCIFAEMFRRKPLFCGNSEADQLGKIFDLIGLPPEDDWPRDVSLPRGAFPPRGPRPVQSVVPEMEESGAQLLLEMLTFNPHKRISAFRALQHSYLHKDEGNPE
UniProt Q00535, whole entry, looked up: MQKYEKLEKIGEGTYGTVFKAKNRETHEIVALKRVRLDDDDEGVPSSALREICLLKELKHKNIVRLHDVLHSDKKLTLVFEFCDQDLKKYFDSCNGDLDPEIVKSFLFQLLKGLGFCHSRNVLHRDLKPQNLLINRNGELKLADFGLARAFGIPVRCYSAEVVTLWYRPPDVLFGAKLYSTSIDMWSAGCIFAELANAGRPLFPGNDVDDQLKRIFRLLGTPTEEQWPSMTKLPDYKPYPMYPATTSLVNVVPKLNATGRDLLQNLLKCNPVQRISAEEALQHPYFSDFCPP
UniProt Q00534, whole entry: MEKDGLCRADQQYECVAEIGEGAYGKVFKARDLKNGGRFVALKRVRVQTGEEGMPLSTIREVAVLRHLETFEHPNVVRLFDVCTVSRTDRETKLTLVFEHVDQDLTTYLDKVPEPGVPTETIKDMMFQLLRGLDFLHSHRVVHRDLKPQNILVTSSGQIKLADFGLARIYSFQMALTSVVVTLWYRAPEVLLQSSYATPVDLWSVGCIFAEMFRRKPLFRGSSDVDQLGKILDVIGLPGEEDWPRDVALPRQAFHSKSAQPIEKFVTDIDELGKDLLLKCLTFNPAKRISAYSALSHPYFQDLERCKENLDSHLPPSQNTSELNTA

Columns and labels:
Assay in all cases: kinase-Nluc reporter destabilization hit call (1 = scored as downregulated) (binary); higher = compound decreases kinase abundance
Conditions in all cases: K562; 2-18 h
ABL1 = ABL1 (UniProt P00519)
AKT1 = AKT1 (UniProt P31749)
ALK = ALK (UniProt Q9UM73)
ARAF = ARAF (UniProt P10398)
AURKA = AURKA (UniProt O14965)
AURKB = AURKB (UniProt Q96GD4)
AURKC = AURKC (UniProt Q9UQB9)
BLK = BLK (UniProt P51451)
BMX = BMX (UniProt P51813)
BRAF_V600E = test system: BRAF_V600E
BTK = BTK (UniProt Q06187)
CAMK2A = CAMK2A (UniProt Q9UQM7)
CAMK2G = CAMK2G (UniProt Q13555)
CDK10 = CDK10 (UniProt Q15131)
CDK3 = CDK3 (UniProt Q00526)
CDK4 = CDK4 (UniProt P11802)
CDK5 = CDK5 (UniProt Q00535)
CDK6 = CDK6 (UniProt Q00534)
BRAF = BRAF (UniProt P15056)
CDK2 = CDK2 (UniProt P24941)

Measured: kinase-Nluc reporter destabilization hit call

CNC(=O)c1cccc2cc(Oc3ccnc4cc(OCC5(N)CC5)c(OC)cc34)ccc12 [Lucitanib] (10 µM)
inactive: ABL1 = 0 | AKT1 = 0 | ALK 0 | ARAF 0 | AURKA 0 | AURKB 0 | AURKC 0 | BLK 0 | BMX 0 | BRAF_V600E 0 | BTK 0 | CAMK2A 0 | CAMK2G 0 | CDK10 = 0 | CDK3 = 0 | CDK4 = 0 | CDK5 = 0 | CDK6 = 0

COc1ccc(NC(=O)N2CCN(c3nc(N)nc4c3cnn4C)[C@@H](C)C2)c(C)c1 (10 µM)
inactive: ABL1 = 0 | AKT1 = 0 | ALK 0 | ARAF 0 | AURKA 0 | AURKB 0 | AURKC 0 | BLK 0 | BMX 0 | BRAF 0 | BTK 0 | CAMK2A 0 | CAMK2G 0 | CDK10 = 0 | CDK2 = 0 | CDK3 = 0 | CDK4 = 0 | CDK5 = 0 | CDK6 = 0

O=C(NOC[C@H](O)CO)c1ccc(F)c(F)c1Nc1ccc(I)cc1F (2.5 µM)
inactive: ABL1 = 0 | AKT1 = 0 | ALK 0 | ARAF 0 | AURKA 0 | AURKB 0 | AURKC 0 | BLK 0 | BMX 0 | BRAF 0 | BTK 0 | CAMK2A 0 | CAMK2G 0 | CDK10 = 0 | CDK2 = 0 | CDK3 = 0 | CDK4 = 0 | CDK5 = 0 | CDK6 = 0

CN1CCN(c2ccc(C(=O)Nc3n[nH]c4ccc(Cc5cc(F)cc(F)c5)cc34)c(NC3CCOCC3)c2)CC1 [Entrectinib] (2.5 µM)
inactive: ABL1 = 0 | AKT1 = 0 | ALK 0 | ARAF 0 | AURKA 0 | AURKB 0 | AURKC 0 | BLK 0 | BMX 0 | BRAF_V600E 0 | BTK 0 | CAMK2A 0 | CAMK2G 0 | CDK10 = 0 | CDK2 = 0 | CDK3 = 0 | CDK4 = 0 | CDK6 = 0

COc1cc(C(=O)NC2CCN(C)CC2)c(F)cc1Nc1ncc2c(n1)N(C1CCCC1)CC(F)(F)C(=O)N2C [TAK-960 (dihydrochloride)] (2.5 µM)
inactive: ABL1 = 0 | AKT1 = 0 | ALK 0 | ARAF 0 | AURKA 0 | AURKB 0 | AURKC 0 | BLK 0 | BMX 0 | BRAF 0 | BTK 0 | CAMK2A 0 | CAMK2G 0 | CDK10 = 0 | CDK2 = 0 | CDK3 = 0 | CDK4 = 0 | CDK5 = 0 | CDK6 = 0

CNC(=O)c1cc(Oc2ccc(NC(=O)Nc3cc(C(C)(C)C)nn3-c3ccc4ncccc4c3)c(F)c2)ccn1 [Rebastinib] (2.5 µM)
inactive: ABL1 = 0 | AKT1 = 0 | ALK 0 | ARAF 0 | AURKA 0 | AURKB 0 | AURKC 0 | BLK 0 | BMX 0 | BRAF_V600E 0 | BTK 0 | CAMK2A 0 | CAMK2G 0 | CDK10 = 0 | CDK2 = 0 | CDK3 = 0 | CDK4 = 0 | CDK5 = 0 | CDK6 = 0

CCn1c(=O)c2cc(C(N)=O)c(N)nc2n(C2CC2)c1=O (10 µM)
inactive: ABL1 = 0 | AKT1 = 0 | ALK 0 | ARAF 0 | AURKA 0 | AURKB 0 | AURKC 0 | BLK 0 | BMX 0 | BRAF 0 | BTK 0 | CAMK2A 0 | CAMK2G 0 | CDK10 = 0 | CDK2 = 0 | CDK3 = 0 | CDK4 = 0 | CDK5 = 0 | CDK6 = 0

COc1ccc(Oc2cc(NCCC(F)(F)F)c3ncc(-c4ccc(C(=O)NC5CC5)c(C)c4)n3n2)c(F)c1F (2.5 µM)
inactive: ABL1 = 0 | AKT1 = 0 | ALK 0 | ARAF 0 | AURKA 0 | AURKB 0 | AURKC 0 | BLK 0 | BMX 0 | BRAF 0 | BTK 0 | CAMK2A 0 | CAMK2G 0 | CDK10 = 0 | CDK2 = 0 | CDK3 = 0 | CDK4 = 0 | CDK5 = 0 | CDK6 = 0

CC#CC(=O)N[C@H]1CCCN(c2c(F)cc(C(N)=O)c3[nH]c(C)c(C)c23)C1 [Branebrutinib] (10 µM)
inactive: ABL1 = 0 | AKT1 = 0 | ALK 0 | ARAF 0 | AURKA 0 | AURKB 0 | AURKC 0 | BLK 0 | BRAF 0 | BRAF_V600E 0 | BTK 0 | CAMK2A 0 | CAMK2G 0 | CDK10 = 0 | CDK2 = 0 | CDK3 = 0 | CDK4 = 0 | CDK5 = 0 | CDK6 = 0

CN(C)Cc1ccc(-c2cnn3c(-c4cccc(NC(=O)c5cccc(C(F)(F)F)c5)c4)ccnc23)cc1 (2.5 µM)
inactive: ABL1 = 0 | AKT1 = 0 | ALK 0 | ARAF 0 | AURKA 0 | AURKB 0 | AURKC 0 | BLK 0 | BMX 0 | BRAF_V600E 0 | BTK 0 | CAMK2A 0 | CAMK2G 0 | CDK10 = 0 | CDK2 = 0 | CDK3 = 0 | CDK4 = 0 | CDK5 = 0 | CDK6 = 0

CN1CCN(S(=O)(=O)c2ccc(-c3cnc(N)c(C(=O)Nc4cccnc4)n3)cc2)CC1 (10 µM)
inactive: ABL1 = 0 | AKT1 = 0 | ALK 0 | ARAF 0 | AURKA 0 | AURKB 0 | AURKC 0 | BLK 0 | BMX 0 | BRAF 0 | BTK 0 | CAMK2A 0 | CAMK2G 0 | CDK10 = 0 | CDK2 = 0 | CDK3 = 0 | CDK4 = 0 | CDK5 = 0 | CDK6 = 0

C=CC(=O)N1C[C@H](Nc2ncnc3[nH]ccc23)CC[C@@H]1C [Ritlecitinib] (10 µM)
inactive: ABL1 = 0 | AKT1 = 0 | ALK 0 | ARAF 0 | AURKA 0 | AURKB 0 | AURKC 0 | BLK 0 | BRAF 0 | BRAF_V600E 0 | BTK 0 | CAMK2A 0 | CAMK2G 0 | CDK10 = 0 | CDK2 = 0 | CDK3 = 0 | CDK4 = 0 | CDK5 = 0 | CDK6 = 0

Sorted by molar mass (low to high): 3 of the compounds above.
C=CC(=O)N1C[C@H](Nc2ncnc3[nH]ccc23)CC[C@@H]1C [Ritlecitinib] (10 µM)
inactive: ABL1 = 0 | AKT1 = 0 | ALK 0 | ARAF 0 | AURKA 0 | AURKB 0 | AURKC 0 | BLK 0 | BRAF 0 | BRAF_V600E 0 | BTK 0 | CAMK2A 0 | CAMK2G 0 | CDK10 = 0 | CDK2 = 0 | CDK3 = 0 | CDK4 = 0 | CDK5 = 0 | CDK6 = 0

CN(C)Cc1ccc(-c2cnn3c(-c4cccc(NC(=O)c5cccc(C(F)(F)F)c5)c4)ccnc23)cc1 (2.5 µM)
inactive: ABL1 = 0 | AKT1 = 0 | ALK 0 | ARAF 0 | AURKA 0 | AURKB 0 | AURKC 0 | BLK 0 | BMX 0 | BRAF_V600E 0 | BTK 0 | CAMK2A 0 | CAMK2G 0 | CDK10 = 0 | CDK2 = 0 | CDK3 = 0 | CDK4 = 0 | CDK5 = 0 | CDK6 = 0

COc1ccc(Oc2cc(NCCC(F)(F)F)c3ncc(-c4ccc(C(=O)NC5CC5)c(C)c4)n3n2)c(F)c1F (2.5 µM)
inactive: ABL1 = 0 | AKT1 = 0 | ALK 0 | ARAF 0 | AURKA 0 | AURKB 0 | AURKC 0 | BLK 0 | BMX 0 | BRAF 0 | BTK 0 | CAMK2A 0 | CAMK2G 0 | CDK10 = 0 | CDK2 = 0 | CDK3 = 0 | CDK4 = 0 | CDK5 = 0 | CDK6 = 0

More compounds follow:

Cc1cc(F)c(C(=O)Nc2cccc(-c3nncn3C(C)C)n2)cc1-n1cnc(C2CC2)c1 [Selonsertib] (10 µM)
inactive: ABL1 = 0 | AKT1 = 0 | ALK 0 | ARAF 0 | AURKA 0 | AURKB 0 | AURKC 0 | BLK 0 | BMX 0 | BRAF 0 | BTK 0 | CAMK2A 0 | CAMK2G 0 | CDK10 = 0 | CDK2 = 0 | CDK3 = 0 | CDK4 = 0 | CDK5 = 0 | CDK6 = 0

COc1c(Cl)cc2c([nH]c3cnccc32)c1NC(=O)c1cccnc1C (10 µM)
inactive: ABL1 = 0 | AKT1 = 0 | ALK 0 | ARAF 0 | AURKA 0 | AURKB 0 | AURKC 0 | BLK 0 | BMX 0 | BRAF_V600E 0 | BTK 0 | CAMK2A 0 | CAMK2G 0 | CDK10 = 0 | CDK3 = 0 | CDK4 = 0 | CDK5 = 0 | CDK6 = 0

O=C(Nc1cc(C(F)(F)F)ccc1N1CCN(Cc2ccccn2)CC1)c1ccc(-c2ccncc2)o1 (10 µM)
inactive: ABL1 = 0 | AKT1 = 0 | ALK 0 | ARAF 0 | AURKA 0 | AURKB 0 | AURKC 0 | BLK 0 | BMX 0 | BRAF 0 | BTK 0 | CAMK2A 0 | CAMK2G 0 | CDK10 = 0 | CDK2 = 0 | CDK3 = 0 | CDK4 = 0 | CDK5 = 0 | CDK6 = 0

CCOc1cc2ncc(-c3cc(N)nc(F)c3)n2cc1S(=O)(=O)C(C)(C)C (10 µM)
inactive: ABL1 = 0 | AKT1 = 0 | ALK 0 | ARAF 0 | AURKA 0 | AURKB 0 | AURKC 0 | BLK 0 | BMX 0 | BRAF 0 | BTK 0 | CAMK2A 0 | CAMK2G 0 | CDK10 = 0 | CDK2 = 0 | CDK3 = 0 | CDK4 = 0 | CDK5 = 0 | CDK6 = 0

CN(C)CCOc1ccc(-c2nc(-c3ccncc3)c(-c3ccc4c(c3)CC/C4=N\O)[nH]2)cc1 (10 µM)
inactive: ABL1 = 0 | AKT1 = 0 | ALK 0 | ARAF 0 | AURKA 0 | AURKB 0 | AURKC 0 | BLK 0 | BMX 0 | BRAF_V600E 0 | BTK 0 | CAMK2A 0 | CAMK2G 0 | CDK10 = 0 | CDK2 = 0 | CDK3 = 0 | CDK4 = 0 | CDK5 = 0 | CDK6 = 0

CC(C)(/C=C(\C#N)C(=O)N1CCC[C@@H](n2nc(-c3ccc(Oc4ccccc4)cc3F)c3c(N)ncnc32)C1)N1CCN(C2COC2)CC1 (2.5 µM)
inactive: ABL1 = 0 | AKT1 = 0 | ALK 0 | ARAF 0 | AURKA 0 | AURKB 0 | AURKC 0 | BLK 0 | BMX 0 | BRAF 0 | BRAF_V600E 0 | CAMK2A 0 | CAMK2G 0 | CDK10 = 0 | CDK2 = 0 | CDK3 = 0 | CDK4 = 0 | CDK5 = 0 | CDK6 = 0

Cc1cccc([C@@H](CO)NC(=O)[C@@H](C)N2Cc3ccc(-c4nc(NC5CCOCC5)ncc4Cl)cc3C2=O)c1 [ERK1/2 inhibitor 1] (10 µM)
inactive: ABL1 = 0 | AKT1 = 0 | ALK 0 | ARAF 0 | AURKA 0 | AURKB 0 | AURKC 0 | BLK 0 | BMX 0 | BRAF 0 | BTK 0 | CAMK2A 0 | CAMK2G 0 | CDK10 = 0 | CDK2 = 0 | CDK3 = 0 | CDK4 = 0 | CDK5 = 0 | CDK6 = 0
